Measurements as given in PubChem BioAssay AID1794844 (National Center for Advancing Translational Sciences (NCATS), 2023).
In all, about 2,800 compounds went through this assay and fewer than 10 were called active. About 7% were inconclusive and are not listed. The call rests on the fitted dose curve; in most records, active means well fitted inhibition curve with a large enough effect; inconclusive means small, poorly fitted or top-dose-only effect; inactive means no such curve, though single readings can be large or run the other way. The list shows a part of the results.

Amino acid sequences for entries named in this document (tags omitted). A change or cut given only in a name is not applied to a line headed by its entry.
UniProt C7C422: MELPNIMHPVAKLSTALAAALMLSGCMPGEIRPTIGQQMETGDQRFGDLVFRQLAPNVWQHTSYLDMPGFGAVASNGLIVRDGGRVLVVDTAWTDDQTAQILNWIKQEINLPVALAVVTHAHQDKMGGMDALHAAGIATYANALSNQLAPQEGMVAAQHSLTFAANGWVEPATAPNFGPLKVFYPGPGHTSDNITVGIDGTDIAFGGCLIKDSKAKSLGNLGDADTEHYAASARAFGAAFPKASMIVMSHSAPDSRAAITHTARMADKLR

Target: Metallo-beta-lactamase type 2 (Klebsiella pneumoniae) (UniProt C7C422)
Experiment: qHTS to identify inhibitors of the New Delhi Metallo-beta-lactamase (NDM): Nitrocefin screen against the machine-based learning selections. Further: % of control where 0% means no effect.
Conditions: NDM-1 enzyme, nitrocefin hydrolysis, absorbance 485 nm; activity, negative = inhibition: at the top concentration
In short: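 NDM-1 (2 nM final) in 50 mM HEPES pH 7.0, 1 uM Zn2SO4, 0.01% Tween20 was preincubated with compounds for >30 min. Nitrocefin (16.7 uM final) was read at 485 nm after 15 min, and meropenem (50 uM final) at 300 nm after 30 min.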

activity, negative = inhibition, inactive:
O=c1c2nc(NCc3ccccc3)ccc2ncn1Cc1ccccn1 -11.6% [at 57.5 µM]
COC(=O)[C@H](NC(=O)[C@@H]1C[C@@H](NC(=O)Nc2cccc(F)c2)CCN1C(=O)CCC(=O)O)C(C)C 0.266%
COc1ccc(CNC(=O)[C@H]2O[C@H](CCN3CCN(c4ccccc4OC)CC3)CC[C@@H]2O)cc1 -4.67%
OCCC1CCN(c2ccc(-c3nc(CCCc4ccccc4)no3)cn2)CC1 22.1%
O=C(NCCc1ccccn1)c1ccnc(-c2nnc3ccc(Nc4ccccc4)nn23)c1 3.43% [at 57.5 µM]
CC(C)NC(=O)N1CCC(O)(c2csc(CN3CC[C@@H](O)C3)n2)CC1 -4.53% [at 57.5 µM]
CC(C)N1CCOC[C@H]1c1ncc(-c2ccc(F)cc2)[nH]1 -3.53% [at 76.7 µM]
CC(=O)Nc1ccc(C2(C(=O)NCc3cccc(F)c3)CCC2)cc1 -0.945%
Cc1ccccc1-c1cnc2[nH]cc(CC(=O)Nc3ccccc3)c2c1 4.8% [at 57.5 µM]
CC(=O)Nc1ccc(CN2CCC(N3CCCCCC3=O)CC2)cc1 -11.6%
Cc1cc(-c2cnc3[nH]cc(CC(N)=O)c3c2)ccn1 22.8% [at 76.7 µM]
O=C(Cc1ccc(Cl)cc1)N[C@H]1[C@H](O)[C@H](O)C[C@@H]1c1cccnc1 -0.774% [at 57.5 µM]
CCn1cnnc1CC1CCCN(S(=O)(=O)c2ccccc2C)C1 (configuration not stated) 0.125%
CC1(CCCCc2ccccc2)COc2ccc(C(=O)NC3CCC(O)CC3)cc2N1 (configuration not stated) 2.52% [at 57.5 µM]
OC(c1cccc(C(F)(F)F)c1)c1nc(Nc2ccc3c(c2)OCO3)n[nH]1 (configuration not stated) -3.57% [at 57.5 µM]
CC(C)C(=O)N1CCC(Oc2cccnc2)C1 (configuration not stated) -4.49%
O=C(c1ccccn1)N1CCCC2(C1)Nc1cccnc1NC2=NC1CCCC1 (configuration not stated) -5.4%
O=C(C1CCCC1)N1CCOC[C@H](Oc2ccc(C(F)(F)F)cc2)C1 5.8% [at 57.5 µM]
CN(CC1CCOCC1)S(=O)(=O)Cc1cccc(Cl)c1 1.33%
CO[C@@H]1COCC[C@H]1NC(=O)CCCn1nnc(-c2ccc(F)cc2)n1 0.749%
CC(C)CC(=O)N1CCc2ccc(S(=O)(=O)N(C)Cc3nccs3)cc2C1 -2.14%
O=C(Cc1c[nH]c2ncc(-c3ccc(F)cc3)cc12)NCc1cccnc1 20.7% [at 57.5 µM]
O=C(c1cccc(F)c1)N1CCC(Cc2nc(C3CCOCC3)no2)CC1 -4.17%
O=C(O)c1ccnc(-c2ccnc(NCC(O)c3ccccc3Cl)n2)c1 (configuration not stated) -1.81%
Cc1noc2c(-c3cccc(CO)c3)cc(-c3ccccc3)nc12 16.5% [at 57.5 µM]
COc1ccc(C(=O)N[C@@H]2CN(C(=O)Nc3ccccc3)CCC[C@H]2O)cc1 -1.38% [at 57.5 µM]
c1ccc(-c2ccc3ncc(Nc4ccccn4)n3n2)cc1 -8.06% [at 76.7 µM]
Clc1cccc(Nc2cc3c(cn2)CN(Cc2cccnc2)CCN3)c1 8.98% [at 57.5 µM]
O=C1NCCCc2[nH]c(-c3csc(-c4cnccn4)n3)nc21 0.943%
CN1C[C@@H](NC(=O)c2cccnc2)C[C@H]1c1nc(-c2ccncc2)no1 1.55% [at 57.5 µM]
CC(=O)N1CCC(N2CC[C@H](c3nc4ncccc4[nH]3)C2)CC1 -8.84% [at 57.5 µM]
Cc1ccc(S(=O)(=O)N2CCCC(Cn3c(C)nc4cccnc43)C2)cc1Cl (configuration not stated) 6.12%
CCC[C@@H]1CN(C(=O)c2ccc(OC)o2)C[C@H]1C(=O)O 24.3%
O=C(Nc1cccc(F)c1)C1CCN(C(=O)N2CC3CC(C2)[C@H]2CCCC(=O)N2C3)CC1 (some centres not stated) 26.6%
CCCS(=O)(=O)N1CCC(N2CCCC(C(=O)N3CCOCC3)C2)CC1 (configuration not stated) -13.9%
CCCN(C)C(=O)CC1COCCN1C(=O)Nc1cccc(SC)c1 (configuration not stated) 2.61%
O=C(CCc1ccccc1)N1CCNc2cnc(Nc3ccc(-n4ccnc4)cc3)nc2C1 -31%
Cc1cc(-c2cnc3[nH]cc(CC(=O)NCc4cccnc4)c3c2)ccn1 3.67% [at 57.5 µM]
Cc1ccccc1[C@H]1C[C@@H](O)[C@@H](O)[C@@H]1NS(C)(=O)=O -0.206% [at 76.7 µM]
O=C(COc1ccccc1)N1CCCC(Nc2ccc(F)cc2)C1 (configuration not stated) -0.0388%
Cc1cc(CNC(=O)[C@@H]2CCC[C@@H](NC(=O)c3ccc(C#N)cc3)CN(C)C(=O)C2)no1 1.94%
COc1cc(-c2nc3cc4[nH]c(=O)[nH]c4cc3[nH]2)cc(OC)c1O 5.31%
O=C1Nc2ccc(-c3ccc(Cl)cc3)cc2C(=O)N2CC[C@H](NS(=O)(=O)c3cccs3)C[C@@H]12 15.3%
O=C(NC1CCCCCC1)c1ccc2c(c1)CC(=O)N2Cc1ccc(F)cc1 -0.0308%
CSc1cccc(NC(=O)Cn2c(N3CCOCC3)nc(C)cc2=O)c1 -3.27%
Cc1ccccc1-c1[nH]nc2ncc(-c3ccccc3O)nc12 -8.85% [at 57.5 µM]
COc1ccc(C(=O)N[C@H]2C[C@H]3C(=O)Nc4ccc(-c5ccsc5)cc4C(=O)N3C2)cc1 3.87%
Cc1n[nH]c(C)c1CCC(=O)N1CCCC(c2ccc(C(=O)O)cc2)C1 (configuration not stated) 4.03%
O=C1CC(C(=O)O)C2(CCN(c3ncc(C(=O)O)cc3Cl)CC2)N1 (configuration not stated) -1.43%
O=C(O)[C@H]1C[C@H](C(=O)NCc2ccccn2)CN(Cc2ccccc2)C1 8.13%
CN1CCN(c2nc3c(c(=O)[nH]2)CCN(Cc2ccccc2C(F)(F)F)CC3)CC1 2.54%
N#Cc1cccc(CN[C@H]2[C@H](O)[C@H](O)C[C@@H]2c2ccc(N3CCOCC3)nc2)c1 1.42% [at 57.5 µM]
COC(=O)[C@H](NC(=O)C1=C[C@@H](NC(=O)Nc2cccc(F)c2)[C@@H](O)[C@H](O)C1)C(C)C -1.49% [at 57.5 µM]
Cc1cccc(-c2cnc3[nH]cc(CC(N)=O)c3c2)c1 -11.5% [at 76.7 µM]
c1ccc(CN2CCNc3cc(Nc4ccc(N5CCOCC5)cc4)ncc3C2)cc1 2.95% [at 57.5 µM]
O=C1CCC(CNC(=O)c2nc(-c3ccccc3)cc3[nH]ccc23)N1 (configuration not stated) -3.45% [at 57.5 µM]
COc1cc(C)c2c(c1C)C[C@H](C(C)C(=O)NCc1ccco1)CC2 (some centres not stated) 10.1% [at 57.5 µM]
COc1ccc(CN2Cc3[nH]cnc3C[C@H]2c2nc(-c3ccc(C(F)(F)F)cc3)no2)cc1 1.26%
Fc1ccc(C2Cn3nnc(-c4nc(-c5ccc6c(c5)OCO6)no4)c3CO2)cc1 (configuration not stated) -10.3%
CCCCc1cc(C[C@@H]2C[C@H](NC(=O)NCC)C2(C)C)no1 -8.33% [at 57.5 µM]
Cc1ccc(-c2cc(N3CCCN(C(=O)CCc4ccccc4)CC3)n[nH]2)cc1C -8.23%
O=C(Cc1csc(-c2ccccc2)n1)N[C@H](c1ccccn1)C1CC(O)C1 (some centres not stated) -2.32%
CN1C[C@@H](NC(=O)Nc2ccccc2)C[C@H]1c1nc(-c2ccc(F)cc2)no1 -6.2% [at 57.5 µM]
COc1cccc(-c2cnc3[nH]cc(CC(N)=O)c3c2)c1 6.17% [at 76.7 µM]
Fc1ccc(CNC[C@H]2Cn3c(-c4ccc5c(c4)OCCO5)cnc3CO2)cc1 -19.3% [at 57.5 µM]
O=C(NCCc1ccccc1)c1cnc2c(c1)N([S+](=O)([O-])c1cccnc1)CCC2 10.2% [at 57.5 µM]
CC(C)(Cc1ccc(F)cc1)NC(=O)C1CCC(=O)N(Cc2ccccn2)C1 (configuration not stated) -2.59%
O=C(CCc1ccccc1)N1CCNc2cnc(Nc3cccnc3)nc2C1 2.66% [at 57.5 µM]
CC(C)(C)c1ccc(-c2cc(C[C@H]3CNCC[C@H]3CC(=O)NCc3cccnc3)no2)cc1 -16.2%
CC(C)C[C@@H]1N[C@H](C(=O)NCc2cccs2)Cc2cn(CC3CC3)c3cccc1c23 13.2% [at 57.5 µM]
Cc1noc([C@@H]2CN(C(=O)c3cc(C)n(Cc4ccco4)c3C)C[C@H]2C(N)=O)n1 -5.64%
Nc1ncccc1CN1CC[C@@H]2OCC(=O)N(Cc3ccc(O)cc3)[C@H]2CC1 2.24% [at 57.5 µM]
CC1(C(=O)NCc2cccnc2)CCc2cnc(Nc3ccccc3)nc21 (configuration not stated) 3.05% [at 57.5 µM]
O=C(N[C@H](c1cccs1)C1CC(O)C1)c1cccc(-n2cccn2)c1 (some centres not stated) -1.64%
NC(=O)COc1ccc(C(=O)N[C@@H]2CN(C(=O)NC3CCCCC3)CCC[C@H]2O)cc1 -7.2% [at 57.5 µM]
O=C1Nc2ccc(-c3cccs3)cc2C(=O)N2CC[C@H](NS(=O)(=O)c3ccc(Cl)cc3)C[C@@H]12 0.469%
O=c1cc(-c2cccnc2)oc2c(-c3ccccc3O)nccc12 -6.45% [at 57.5 µM]
O=C(NCc1ccccc1)O[C@@H]1CO[C@H]2[C@@H]1OC[C@@H]2Nc1nccc(-c2ccc3c(c2)OCO3)n1 -3.73%
CCc1noc(-c2cn(C3CCN(C(=O)c4ccc(C)c(C)c4)CC3)nn2)n1 -2.66%
O=C(c1cccc(-n2cnnc2)c1)N1CCCCCC1c1cccc(F)c1 (configuration not stated) 2.38%
COc1ccccc1CN1CC(c2noc(-c3ccc(C)cc3C)n2)CC1=O (configuration not stated) -2.35%
N#Cc1cccc(C2CCN(C(=O)C3CCN(C(=O)C4CC4)CC3)CC2)c1 -1.31%
CC(C)(CNc1ccc(-c2nc(C3CC3)no2)cn1)N1CCOCC1 3.15%
Cc1cccc(Cl)c1NC(=O)N1CCC2(CC1)C(C(=O)O)CC(=O)N2C (configuration not stated) 6.76%
COc1cccc(S(=O)(=O)N2CCC(n3cnnc3-c3ccccc3)CC2)c1 -12.5%
CN(Cc1cc(C[C@H]2CNCC[C@H]2CC(=O)N2CCN(c3ccccc3)CC2)no1)c1ccccc1 -1.55%
Cc1ccc2nc(C3CCN(Cc4cccc(-c5ccsc5)c4)CC3)[nH]c(=O)c2c1 5.38%
COc1ccc(-c2cc(N3CCCN(C(=O)c4cnccn4)CC3)n[nH]2)cc1 5.78%
CSCC(=O)N[C@H]1CCN2C(=O)c3ccccc3NC(=O)[C@H]12 -1.04% [at 57.5 µM]
Cc1nc(N(C)C)ncc1C(=O)NC(C(=O)O)c1c(C)n[nH]c1C (configuration not stated) -3.95%
Cc1ccc(CNC(=O)CN2CC3CC(C2)[C@H]2CCCC(=O)N2C3)cc1 (some centres not stated) -1.63%
Fc1ccc(CN2CC[C@H](c3nc4ccccc4o3)C2)cc1F -0.456% [at 57.5 µM]
Cc1ccccc1Nc1n[nH]c(C(O)c2ccc3c(c2)CCO3)n1 (configuration not stated) 1.41% [at 57.5 µM]
COc1ccc(-c2noc([C@@H]3Cc4nc[nH]c4CN3C(=O)Nc3ccc(C)cc3)n2)cc1 -10.4% [at 57.5 µM]
CCCNc1ncc(CN2CCCC(c3ccc(C(=O)O)cc3)C2)cn1 (configuration not stated) -0.546%
Cn1cc(CN[C@H]2C[C@H]3C(=O)NC[C@@H](CCC(=O)N4CCCCC4)N3C2)c2ccccc21 1.02%
O[C@@H]1C[C@@H](c2nc(-c3ccccn3)no2)N(Cc2ccccc2)C1 -5.56% [at 57.5 µM]
